Reference: PubChem BioAssay AID1487 (National Center for Advancing Translational Sciences (NCATS), 2009)
About 25 (0.01%) of roughly 200,000 compounds were called active. The shares of active, inactive and inconclusive entries below differ from those in the screen. The call rests on the fitted dose curve; in most records, active means well fitted inhibition curve with a large enough effect in the signal ratio, with a control signal flat (not every such curve was filed as active); inconclusive means small, poorly fitted or top-dose-only effect, or effect the other way, or a change in a side signal; inactive means flat fitted curve, though single readings scatter; the % refers to the signal ratio. Potencies beside an inconclusive call are fits to weak or partial responses and may not hold up.

Assay: qHTS Assay for Modulators of Lamin A Splicing
Details: HeLa LMNA splicing GFP/RFP minigene ratio, 48 h; ratio change, negative = inhibition: at 46.1 µM (top of the series) unless noted
In short: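 S3 HeLa stable clones carrying a lamin A-EGFP splicing minigene plus DsRed2 were seeded at 600 cells/well in Opti-MEM with 2% FBS, pin-dosed and incubated 48 h at 37°C. Acumen cytometry (488 nm) gave the GFP/RFP total-intensity ratio.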
On the % scale 0 is the no-effect control and ±100 the full control effect; potency means the concentration at half of the fitted maximal effect.

Row | Structure (SMILES) | ratio change, negative = inhibition | Potency
1 | Cc1ccc(-n2cccn2)c(CN2CCCC(CNC(=O)c3ccc(F)cc3)C2)c1 (stereo not drawn) | inconclusive: -9.89% [at 46 µM] | 
2 | CC1CCC(=NNC(=O)Cc2cccn2C)CC1 (stereo not drawn) | inconclusive: 1.93% [at 46 µM] | 
3 | COc1ccc2c([N+](=O)[O-])c(Cl)[nH]c2c1 | inactive: -1.12% [at 46 µM] | 
4 | CCOC(=O)c1cnn(-c2nc3sc4c(c3c(=O)[nH]2)CCCC4)c1N |  | inconclusive: 1.26 µM [falling, full curve]
5 | CCCCOC(=O)Nc1ccccc1C(=O)N1CCCC1 | inconclusive: 7.79% | 
6 | CC1(C)CC(=O)C2=C(C1)N(Cc1ccco1)C(=O)C2(NC(=O)C1CCCCC1)C(F)(F)F (stereo not drawn) | inactive: 13.9% | 
7 | CC(C)Oc1ccc(C(CC(=O)O)c2ccc(F)cc2)cc1 (stereo not drawn) | inconclusive: 22.2% [at 46 µM] | 
8 | COc1cc(/C=C/C(=O)O)cc(S(=O)(=O)Nc2ccc3nc(SC)sc3c2)c1OC | inactive: -8.94% [at 46 µM] | 
9 | Cc1ccc(Cl)cc1N1CCN(C(=O)c2c(C)oc3ncnc(N4CCOCC4)c23)CC1 | inactive: -5.91% [at 46 µM] | 
10 | CCOC(=O)C1CCN(c2cc(C)nc3ccc(OC)cc23)CC1 | inconclusive: 25% [at 9.22 µM] | 
11 | CC1CC(CC(=O)NC(=S)Nc2ccccc2Cl)C(=O)O1 (stereo not drawn) | inconclusive: -6.83% [at 46 µM] | 
12 | Oc1ccc(-c2csc(-c3c[nH]c4ccccc34)n2)c(O)c1 | inconclusive: -29.7% | 
13 | O=C(COc1ccc(Cl)cc1)N1CCN(C(=O)c2cccs2)CC1 |  | inconclusive: 35.5 µM [activator, single point]
14 | O=C(NCc1cccnc1)c1ccc(NC(=O)c2cccc([N+](=O)[O-])c2)cc1 |  | inconclusive: 0.794 µM [activator, full curve, poor fit]
15 | O=C(ONc1ccc(N=NC(=O)c2ccccc2O)cc1)c1ccccc1 | inactive: 4.64% | 
16 | Cc1ccsc1C1NC(=O)c2ccccc2N1 (stereo not drawn) | inconclusive: -30.9% | 
17 | COc1ccc2ncc(S(=O)(=O)c3ccccc3)c(N3CCN(c4ccccc4)CC3)c2c1 | inconclusive: -10.9% | 
18 | O=C(CCSCc1cccc(Cl)c1)N1CCN(c2ccc(Cl)cc2)CC1 | inactive: -10% [at 46 µM] | 
19 | N#Cc1cccc(-c2nc(NCCN3CCOCC3)c3ccccc3n2)c1 | inconclusive: -26.7% | 
20 | O=C(O)c1sc2cc(C(F)(F)F)cnc2c1-c1ccccc1 | inconclusive: 36.5% | 
21 | O=C(NCCC1=CCCCC1)c1cc(-c2ccncc2)nc2ccccc12 | inconclusive: -2.11% [at 9.22 µM] | 
22 | COc1cc(OC)cc(N2C(=O)N(Cc3ccc(C(C)(C)C)cc3)c3ccccc3S2(=O)=O)c1 | inconclusive: -3.43% [at 46 µM] | 
23 | O=C(CCNS(=O)(=O)c1cccc2nsnc12)NC1CCN(Cc2ccccc2)CC1 | inactive: -7.58% | 
24 | C#CCCOC(=O)N1C2=NC(C(=O)OC)=C(C(=O)OC)[C@@H]3Nc4ccccc4[C@]23C[C@H]1C(=O)OC | inconclusive: -5.79% [at 9.22 µM] | 
25 | COc1ccccc1N1CCN(C(=O)/C=C/c2cccs2)CC1 | inactive: -0.453% | 
26 | CCOC(=O)CSc1nc2sc(C)c(C)c2c(=O)n1N | inconclusive: 15.7% | 

Row | Structure (SMILES) | ratio change, negative = inhibition | Potency
27 | CC(C)NC(=O)c1ccc(-n2c(=S)[nH]c3ccccc3c2=O)cc1 | inconclusive: -10% [at 46 µM] | 
28 | Cc1c(NC(=S)N/N=C/C=C/c2ccccc2)c(=O)n(-c2ccccc2)n1C | inconclusive: 1.63% [at 46 µM] | 
29 | O=C(OC(C(=O)NCc1ccc2c(c1)OCO2)c1ccccc1F)c1ccco1 (stereo not drawn) | inactive: 11.4% | 
30 | Cc1cc2c(cc1C)NC(c1ccccn1)C1=C(CC(C)(C)CC1=O)N2 (stereo not drawn) | inconclusive: -6.04% | 
31 | NNc1nc2c(F)cc(F)cc2s1 | inactive: -16% | 
32 | C=CCc1c(C)nc(-c2ccccc2)nc1Nc1ccc(O)cc1 | inconclusive: -40.2% | 
33 | COc1ccccc1N1Cc2ccccc2C1 | inactive: 2.45% | 
34 | Cc1ccc(C(=O)NC(=S)N2CC(C)OC(C)C2)cc1[N+](=O)[O-] (stereo not drawn) | inconclusive: 31.9% | 
35 | Cc1ccc([N+](=O)[O-])c(OCCCNCC(C)O)c1 (stereo not drawn) | inactive: -18.3% [at 46 µM] | 
36 | Cc1cccc(NC2=C/C(=N/S(=O)(=O)c3cccs3)c3ccccc3C2=O)c1 |  | inconclusive: 5.62 µM [cytotoxic, single point]
37 | CC(C)CNC(=S)N1CCC(c2nc(-c3ccc(F)cc3)no2)CC1 | inconclusive: -13.8% [at 46 µM] | 
38 | Cc1nc(Oc2ccc(S(=O)(=O)N3CCOCC3)cc2Cl)c2c3c(sc2n1)CCCC3 |  | inconclusive: 35.5 µM [fluorescent, single point]
39 | CC(=O)N(CN1C(=O)c2ccc([N+](=O)[O-])cc2C1=O)c1cccc(C(=O)O)c1 | inconclusive: 4.31% [at 9.22 µM] | 
40 | CC(=O)c1ccc(NC(=O)c2cc(C)nc3c2c(C)nn3-c2ccc(C)cc2)cc1 | inconclusive: -4.2% [at 46 µM] | 
41 | O=c1c(-c2cccs2)nc2cnc(N3CCOCC3)nc2n1-c1ccccc1 | inactive: 11.7% | 
42 | COc1ccc(-c2nnn(CC(=O)N(CCCN3CCOCC3)C(C(=O)NC3CCCC3)c3ccco3)n2)cc1 (stereo not drawn) | inconclusive: 23.7% [at 46 µM] | 
43 | CCOc1ccc(/C=C(\C#N)C(=O)NCC2CCCO2)cc1OCC (stereo not drawn) | inactive: -28.3% | 
44 | COc1ccccc1NC(=O)c1c(NCc2ccc(C)o2)sc2c1CCCCC2 | inconclusive: -34.9% [at 46 µM] | 
45 | CCOc1ccc(S(=O)(=O)N2c3ccccc3CC2C)cc1 (stereo not drawn) | inconclusive: -41% | 
46 | CC(C)(C)C(=O)OCOC(=O)[C@@H]1N2C(=O)[C@@H](NC(=O)[C@H](N)c3ccccc3)[C@H]2SC1(C)C | inconclusive: -8.4% | 
47 | CC(=O)Nc1nonc1-c1nnc(SCc2ccccc2F)n1C | inconclusive: 30% [at 46 µM] | 
48 | CC(=O)c1ccc(N2CCN(c3ncnc4c3c(-c3ccccc3)cn4-c3ccc(Cl)cc3)CC2)cc1 | inconclusive: -23.8% [at 46 µM] | 
49 | COc1ccc(Oc2coc3cc(OC(=O)/C=C/c4ccc(F)cc4)ccc3c2=O)cc1 | inactive: -1.09% | 
50 | CN1C2CCC1/C(=C\c1ccccc1)C(=O)/C2=C\c1ccccc1 |  | inconclusive: 35.5 µM [cytotoxic, single point]
51 | C(=N\Nc1nc2ccccc2s1)/c1cccs1 | inconclusive: -29.8% | 
52 | CC(=O)c1ccc(OCCn2cnc3ccccc32)cc1 | inconclusive: -45.9% | 

Looked up above.
CN1C2CCC1/C(=C\c1ccccc1)C(=O)/C2=C\c1ccccc1 – Potency: inconclusive: 35.5 µM [cytotoxic, single point]
CC(C)CNC(=S)N1CCC(c2nc(-c3ccc(F)cc3)no2)CC1 – ratio change, negative = inhibition: inconclusive: -13.8% [at 46 µM]
CC(=O)N(CN1C(=O)c2ccc([N+](=O)[O-])cc2C1=O)c1cccc(C(=O)O)c1 – ratio change, negative = inhibition: inconclusive: 4.31% [at 9.22 µM]

Going on with the list.

Row | Structure (SMILES) | ratio change, negative = inhibition | Potency
53 | Cc1ccc(NC(=O)Cn2c(=O)nc(-c3ccccc3)c3ccccc32)cc1F | inactive: 13.7% [at 46 µM] | 
54 | CC(C)(C)CNc1cc(N2CCOCC2)ccc1[N+](=O)[O-] | inconclusive: 1.42% [at 46 µM] | 
55 | CC1=C(C(=O)N2CCN(c3cccc(Cl)c3)CC2)C2(CCCCC2)OC1=O | inactive: -0.742% [at 46 µM] | 
56 | CC(=O)Nc1ccc(NC(=O)C(C)c2cccc(C(=O)c3ccccc3)c2)cc1 (stereo not drawn) | inconclusive: -26.5% | 
57 | Cc1nn(CC(=O)OCCOc2ccc(Br)cc2)c(C)c1[N+](=O)[O-] | inconclusive: 14.3% [at 46 µM] | 
58 | CCOC(=O)CSc1nc2c(sc3ccccc32)c(=O)n1CCO | inactive: -19.6% [at 46 µM] | 
59 | CCN(CC)CCCNc1ncnc2c1cnn2-c1ccc(C)c(C)c1 | inconclusive: -25.2% [at 46 µM] | 
60 | Cc1ccc2nc(COc3ccccc3NC(=O)c3ccc(F)cc3)cc(=O)n2c1 | inconclusive: -20.3% [at 46 µM] | 
61 | COc1ccc(Cl)cc1NC(=S)NCCC(c1ccccc1)c1ccccc1 |  | inconclusive: 35.5 µM [falling, single point]
62 | CCOC(=O)c1c(NC(=O)c2ccc(S(=O)(=O)N(C)C3CCCCC3)cc2)sc2c1CCN(C(C)C)C2 |  | inconclusive: 35.5 µM [rising, single point]
63 | Cc1ccc(Cl)cc1-n1ncc2c(N3CCN(Cc4ccccc4)CC3)ncnc21 |  | inconclusive: 35.5 µM [cytotoxic, single point]
64 | Cc1cccc(C(=O)Nc2ccnc(-c3cccnc3)n2)c1 | inconclusive: -11.2% [at 46 µM] | 
65 | CC1CCN(S(=O)(=O)c2nnc(NC(=O)c3cccc(Cl)c3)s2)CC1 | inactive: 6.56% [at 46 µM] | 
66 | CCOC(=O)c1nnn(-c2nonc2-n2cccc2)c1-c1cccc([N+](=O)[O-])c1 | inconclusive: 3.83% [at 46 µM] | 
67 | Brc1ccc(-c2csc(-c3c[nH]c4ccccc34)n2)cc1 | inconclusive: 12.5% | 
68 | CCCCS(=O)(=O)N1C2=NC(C(=O)OC)=C(C(=O)OC)[C@@H]3N(Cc4ccccc4)c4ccccc4[C@]23C[C@H]1C(=O)OC | inconclusive: 4.99% [at 9.22 µM] | 
69 | COc1ccccc1CNC(=O)CN1C(=O)COc2ccc(S(=O)(=O)NC3CCCC3)cc21 | inconclusive: -10.4% [at 46 µM] | 
70 | COc1ccccc1Cc1nc2ccccc2nc1SCC(=O)N1CCN(c2ccccc2)CC1 | inactive: -4.96% [at 46 µM] | 
71 | C[C@@]12C(=O)OC(=O)[C@]1(C)[C@H]1CC[C@@H]2O1 |  | inconclusive: 1.12 µM [cytotoxic, partial curve, poor fit]
72 | O=C(O)CCC/C=C\C[C@@H]1[C@@H](/C=C/[C@@H](O)COc2cccc(C(F)(F)F)c2)[C@H](O)C[C@@H]1O | inconclusive: -2.83% | 
73 | O=C(NCc1ccco1)c1ccc2c(c1)N(Cc1ccc(Cl)cc1)C(=O)c1ccccc1S2 | inconclusive: -23.5% [at 46 µM] | 
74 | Cc1c(C)n(CCc2c[nH]c3ccccc23)ccc1=O | inconclusive: 10.9% [at 1.84 µM] | 
75 | O=C(O)c1cccc(N/N=C/C2=C(Cl)c3cc(Cl)ccc3SC2)c1 | inconclusive: 34.5% [at 46 µM] | 
76 | COC(C#CCCN(C)C)(c1ccccc1)c1ccccc1 | inactive: -2.09% | 
77 | Cc1onc(-c2ccccc2Cl)c1C(=O)OCC(=O)c1ccccc1 | inconclusive: -30.8% | 
78 | C=CCc1cc(Cl)ccc1OCCOCCNCCOC | inconclusive: 5.21% | 
